The other results are listed elsewhere or left out. The main result of the screen is listed elsewhere. These columns were measured beside it and carry no call. Compounds called inactive in the main read-out are mostly missing here. Potencies come from curve fits of mixed quality, noted in brackets.
Assay: qHTS Assay for Modulators of Lamin A Splicing
Details: HeLa LMNA splicing GFP/RFP minigene ratio, 48 h
In short: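 Read-out is the ratio of GFP to DsRed2 object intensity, acquired by 488 nm laser-scanning cytometry on HeLa lamin A-EGFP minigene reporter cells. Compound incubation 48 hrs at 37 °C in Opti-MEM with 2% FBS; DMSO 0.5% final.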

[1] = measured here: RFP viability control channel
[2] = measured here: GFP splicing reporter channel

Compound	AC50 [1]	AC50 [2]
S=c1[nH]c(-c2ccccc2)cn1/N=C/c1cccs1	0.0398 µM [falling, full curve, poor fit]	
COc1ccc2nc(SCCOC(=O)Nc3ccc(Cl)cc3)nc(C)c2c1	35.5 µM [rising, single point]	35.5 µM [rising, single point]
C=CCc1cc(C=O)cc(OCC)c1OCc1ccc(Cl)cc1	35.5 µM [rising, single point]	
O=c1c2ccccc2ncn1-c1ccccc1F	0.000708 µM [falling, full curve, poor fit]	
O=S(=O)(c1cccs1)N1CCN(CC(O)COc2cccc(Br)c2)CC1 (centres undefined)	12.6 µM [rising, single point]	
O=C(NCC1CC1)c1ccc(Nc2nc3ccc(Br)cc3[nH]2)cc1	35.5 µM [rising, single point]	15.8 µM [rising, single point]
O=C1NN(c2ccccc2)C(=O)/C1=C\c1ccc(-c2cc([N+](=O)[O-])ccc2O)o1	14.1 µM [rising, partial curve]	
c1cncc(-c2nc(N3CCCCCC3)c3ccccc3n2)c1	17.8 µM [rising, single point]	15.8 µM [rising, single point]
CCN(CC)C(=O)C1CCCN(c2ncnc3c2c(-c2ccccc2)cn3-c2cccc(C)c2)C1 (centres undefined)		35.5 µM [falling, single point]
COc1ccc(C(=O)NC(=S)Nc2ccc(N3CCOCC3)c(Cl)c2)cc1[N+](=O)[O-]	17.8 µM [rising, single point]	
COc1ccc(-c2cc3ccc(O)c(CN4CCCCC4C)c3oc2=O)cc1OC (centres undefined)		0.562 µM [rising, full curve, poor fit]
CC(C)(C)C1CCc2onc(C(=O)NC3CCCC3)c2C1 (centres undefined)	35.5 µM [rising, single point]	
COc1ccc(C2C(CC(=O)O)=C(Nc3ccccc3)C(=O)N2c2ccccc2)cc1 (centres undefined)	0.891 µM [falling, full curve, poor fit]	
O=C(CCNS(=O)(=O)c1ccc2c(c1)CCN2C(=O)C1CC1)N1CCN(c2cccc(C(F)(F)F)c2)CC1	0.0447 µM [falling, full curve, poor fit]	
O=C1CC(N2CCN(C/C=C/c3ccccc3)CC2)C(=O)N1Cc1ccc(N2CCCC2=O)cc1 (centres undefined)	14.1 µM [rising, partial curve]	12.6 µM [rising, partial curve]
O=C(c1cc2sccc2n1Cc1ccc(F)cc1)N1CCc2ccccc21	1.12 µM [rising, partial curve]	
COc1ccc(OCc2ccc(-c3nc(C#N)c(NCc4cccnc4)o3)o2)cc1		28.2 µM [falling, partial curve]
O=c1c2ccccc2c(-c2ccccc2)nn1-c1cc(Cl)ccc1[N+](=O)[O-]	25.1 µM [rising, single point]	35.5 µM [rising, single point]
CCCOC(=O)c1[nH]c2c(c1C)C(=O)CC(c1cc(OC)c(OC)c(OC)c1)C2 (centres undefined)	3.16 µM [rising, full curve]	2.82 µM [rising, full curve, poor fit]
CCN(CC)c1ccc(/C=C(/C#N)c2nc3ccc(C)cc3[nH]2)c(OC(C)C)c1	0.0251 µM [falling, single point]	
C/C(=N\NC(=O)COc1ccccc1-c1ccccc1)c1ccccn1	11.2 µM [rising, partial curve]	
Cc1cc([N+](=O)[O-])ccc1NC(=O)Nc1ccccc1F	0.0794 µM [rising, partial curve, poor fit]	
CN1CCN(Cc2nc3ccccc3c(=O)n2Cc2nc(-c3ccc4ccccc4c3)cs2)CC1	14.1 µM [falling, single point]	15.8 µM [falling, single point]
Cc1cc(C)cc(NC(=O)N2CCN(C(=O)c3nsc4ccccc34)CC2)c1	22.4 µM [rising, partial curve]	0.631 µM [rising, full curve, poor fit]
c1cncc(-c2nccc(-n3ccnc3)n2)c1		0.708 µM [falling, single point]
C/C(=N\Nc1nc(-c2cc(C)ccc2C)cs1)c1cc2c(ccc3ccccc32)oc1=O	20 µM [rising, partial curve, poor fit]	
CN(C)CCc1c[nH]c2ccc(CS(=O)(=O)N3CCCC3)cc12	4.47 µM [falling, partial curve, poor fit]	1.58 µM [falling, partial curve, poor fit]

Compound	AC50 [1]	AC50 [2]
C/C(=N\S(=O)(=O)c1ccc(C)cc1)Nc1cc(C(C)C)c(O)cc1C	12.6 µM [rising, single point]	
Cc1ccc(C2(C)NC(=O)N(CC(=O)Nc3cc(S(=O)(=O)N4CCOCC4)ccc3C)C2=O)cc1 (centres undefined)	0.0501 µM [rising, full curve, poor fit]	1 µM [rising, partial curve]
N#CCCS(=O)(=O)c1nnnn1-c1ccccc1	20 µM [rising, partial curve]	
COc1ccc(NS(=O)(=O)c2ccc(C)c(NC(=O)NC3CCCCC3)c2)cc1	35.5 µM [rising, single point]	
CCOc1ccc(NC(=O)c2sc(NC(C)=O)c(C(=O)OC)c2C)cc1		0.0447 µM [rising, full curve, poor fit]
COc1ccc(NC(=S)N(CCCN2CCCC2)Cc2cccn2Cc2ccc(Cl)cc2)cc1Cl	17.8 µM [falling, single point]	35.5 µM [falling, single point]
C/C(=N\NC(=O)CSCc1ccccc1Cl)c1cc(O)ccc1O		6.31 µM [falling, single point]
Cc1ccc(C(=O)CC2(O)C(=O)N(Cc3ccc4c(c3)OCO4)c3ccccc32)cc1 (centres undefined)	22.4 µM [rising, single point]	12.6 µM [rising, single point]
COc1ccc(-c2cc(C(=O)N/N=C/c3sccc3C)c3ccccc3n2)c(OC)c1	7.08 µM [rising, full curve]	
Cn1c(Oc2ccc(Cl)cc2)c(C=O)c2ccccc21		11.2 µM [rising, partial curve, poor fit]
COc1ccc(C(=O)OCC(=O)NCc2ccco2)cc1S(=O)(=O)N1CCN(c2cccc(Cl)c2)CC1	12.6 µM [rising, single point]	10 µM [rising, partial curve, poor fit]
O=C(Nc1ccccc1SCC1CSc2nc3ccccc3c(=O)n21)c1ccccc1Cl (centres undefined)	35.5 µM [rising, single point]	
Cc1cccc(NC(=S)N(CCCN2CCCC2)Cc2cccn2Cc2ccc(Cl)cc2)c1	35.5 µM [falling, single point]	35.5 µM [falling, partial curve, poor fit]
COc1ccc(-c2nn(-c3ccccc3)cc2C(=O)OCC(=O)c2ccc(C)c([N+](=O)[O-])c2)cc1	15.8 µM [rising, single point]	
Cc1cc(Nc2ccc(Cl)cc2)n(-c2cccc(Cl)c2)n1	14.1 µM [rising, single point]	11.2 µM [rising, single point]
COc1ccc(C(=O)Oc2ccc(C(=S)N3CCOCC3)cc2)cc1	0.1 µM [falling, full curve]	0.0708 µM [falling, full curve]
COc1ccccc1-c1nnc(SCC(=O)Nc2nc(-c3ccccc3)cs2)n1C	8.91 µM [rising, partial curve]	5.01 µM [rising, partial curve]
CC1CCN(CCCNC(=O)CN2C(=O)CSc3ccc(S(=O)(=O)N4CCOCC4)cc32)CC1		5.62 µM [rising, single point]
O=C(O)c1ccc(CSc2nc(-c3ccc(Cl)cc3)cc(C(F)(F)F)n2)cc1	35.5 µM [falling, single point]	35.5 µM [falling, single point]
O=[N+]([O-])c1ccccc1/C=C/C=N/n1c(-c2ccccc2)n[nH]c1=S	11.2 µM [rising, single point]	
CCCOc1ccc(C(=O)NC(=S)NCc2cccnc2)cc1	35.5 µM [rising, single point]	15.8 µM [rising, partial curve]
Clc1cccc(-n2ncc3c(NCCCN4CCOCC4)ncnc32)c1		0.00447 µM [falling, full curve, poor fit]
CCCOC(=O)c1ccc(NC(=O)c2ccccc2[N+](=O)[O-])cc1	0.0251 µM [falling, full curve, poor fit]	
Nc1ccc(C(=O)O)cc1[N+](=O)[O-]	11.2 µM [falling, partial curve, poor fit]	15.8 µM [falling, single point]
CCc1ccccc1N(C(=O)CCC(=O)Nc1cc(C)on1)C(C(=O)NC1CCCC1)c1ccco1 (centres undefined)	25.1 µM [rising, single point]	
COc1ccc(-c2noc(CN(C(=O)c3c(-c4ccccc4Cl)noc3C)C(C)C)n2)cc1	14.1 µM [rising, single point]	
COc1cc(-c2ccno2)ccc1S(=O)(=O)N1CCN(c2ccccc2)CC1		0.282 µM [rising, partial curve]

Part of the list above, with each value named:
O=C(O)c1ccc(CSc2nc(-c3ccc(Cl)cc3)cc(C(F)(F)F)n2)cc1
  AC50 [1]: 35.5 µM [falling, single point]
  AC50 [2]: 35.5 µM [falling, single point]
O=[N+]([O-])c1ccccc1/C=C/C=N/n1c(-c2ccccc2)n[nH]c1=S
  AC50 [1]: 11.2 µM [rising, single point]
